Experimental data: PubChem BioAssay AID720505 (Drosophila RNAi Screening Center, 2013)

Screen: 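Knock-downs that reduce calcium influx once internal stores are emptied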 (primary screen)
Cells: Drosophila S2R+ cells
Knock-down reagent: long dsRNA against Drosophila genes
Challenge: thapsigargin (2 µM) in calcium-free buffer to empty internal stores, then 2 mM calcium added back
Measured: 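Fluo-4 signal in 384-well plates read on a FLIPR after thapsigargin (2 µM, calcium-free) store depletion and 2 mM calcium add-back; unnormalised mean endpoint per well; screen run twice, selected wells retested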
Scale: calcium signal and retest calcium signal: higher = more calcium entry after store depletion
Hit rule: 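About 1500 genes called as lowering calcium entry, by varying amounts, judged against per-plate control wells with STIM1 as positive and Rho1 as negative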
Meaning of the calls: active = called as lowering calcium entry; inactive = not called
In all, the deposit lists about 20,000 reagents; shown is an unselected part of those with a known target gene and a result. Of all reagents, about 2,100 (10%) are marked active. 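Raw plate signals without normalisation; calls rest on control-based scores that were not deposited; replicate 2 separates called from uncalled poorly.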 The numbers tell different reagents against one gene apart. Not stated in the record: the amount of reagent, the time to read-out.

Against CG6484 (GeneID 36994), the entry reads calcium signal, replicate 1 = 125; calcium signal, replicate 2 = 91.1; inactive.
Cdc7 (GeneID 31598) #1 gave calcium signal, replicate 1 = 165; calcium signal, replicate 2 = 134; retest calcium signal, replicate 1 = 116; retest calcium signal, replicate 2 = 124; inactive.
Knock-down of Cdc7 (GeneID 31598) #2 came out at: calcium signal, replicate 1 = 176; calcium signal, replicate 2 = 112; inactive.
Against Cdc7 (GeneID 31598) #3 the deposit lists calcium signal, replicate 1 = 96.8; calcium signal, replicate 2 = 138; inactive.
Knock-down of CG13048 (GeneID 39789) came out at: calcium signal, replicate 1 = 102; calcium signal, replicate 2 = 138; inactive.
With knock-down of upd2 (GeneID 32805) the results were calcium signal, replicate 1 = 85.9; calcium signal, replicate 2 = 158; retest calcium signal, replicate 1 = 120; retest calcium signal, replicate 2 = 130; inactive.
For CG3104 (GeneID 33486), the values are calcium signal, replicate 1 = 211; calcium signal, replicate 2 = 92.1; inactive.
CG32271 (GeneID 38392) gave calcium signal, replicate 1 = 109; calcium signal, replicate 2 = 136; inactive.
Silencing of Ugt36E1 (GeneID 35139) gave: calcium signal, replicate 1 = 96.6; calcium signal, replicate 2 = 103; inactive.
After knock-down of Art7 (GeneID 37664), the record shows calcium signal, replicate 1 = 131; calcium signal, replicate 2 = 201; inactive.
Depletion of CG13557 (GeneID 37717) came out at: calcium signal, replicate 1 = 91.9; calcium signal, replicate 2 = 218; inactive.
Knock-down of CG6700 (GeneID 34496) came out at: calcium signal, replicate 1 = 87.9; calcium signal, replicate 2 = 120; inactive.
